{
  "source": "paper doi:10.1101/2021.07.21.453204",
  "binders": {"B1": {"name": "NODULIN HOMEOBOX (NDX), yeast two-hybrid fusion (protein, UniProt F4JI44 1-913)", "chain": "MVRLLQPKHMVQAVNALHWRNSVEFHKLLKDNGDFSICFNSEQVLPQKISVEKMVKMLPRHLIAVVMTPNKDGKSRYILCGIRLLQTLCDLTPRNAKLEQVLLDDVKLSAQMIDLVILVIIALGRNRKESCNSNKESLLEATLVASCLHLFHGFISPNSQDLVLVLLAHPRVDVFIDSAFGAVLNVVISLKAKLLYRQTDSPKKLGASSVEEVNFHCQQAEAALQFLHSLCQHKPFRERVAKNKELCGKGGVLRLAQSILSLTITPEFVGATVTIASTSRMKAKVLSILQHLFEAESVSFLDEVANAGNLHLAKTVASEVLKLLRLGLSKASMATASPDYPMGFVLLNAMRLADVLTDDSNFRSFFTEHFSMVLSAVFCLSHGDFLSMLCSSDLSSREDDANVDYDLFKSAGWILSVFSSSGQSVTPQFKLSLQNNLTMSSYAHQRTSLFIKMIANLHCFVPNVCQEQDRNRFIQNVMSGLRKDPSSILIKMLPGSSYTPVAQRGTGVCRNLGSLLRHAESLIPSSLNEEDFLLLRVFCDQLQPLIHSEFEESQVQVKVKKLFALLYIGFTILWLICLVTLIQDIEGRGGNLSGKLKELLNLNNEEASEDCDVRVEGVMTKQGVNEEIDTVERLKESDADASNLETSGSDTSSNRGKGLVEEGELVQNMSKRFKGSASGEVKEDEKSETFLVFEKQKKKRKRSIMNADQMGMIEKALAEEPDLQRNSASRQLWADKISQKGSEVITSSQLKNWLNNRKAKLARANKQTGPAHDNNSSGDLPESPGDENTWQQKPSTPIKDQTVTETPKTGENLMRTSSSSEEGIKQGQQVRLMDERGDEIGKGTVLRTDGEWNGLSLETRQICVVDVMELSESYDGSKKMIPYGSDDVGRTFTEANSRFGVMRVAWDVNKLQY"}},
  "assay_in_all_cases": "two-hybrid",
  "key": {"[1]": {"target": "T1, RING1A, yeast two-hybrid fusion (Arabidopsis thaliana) (UniProt Q9FKW0)", "T1 sequence": "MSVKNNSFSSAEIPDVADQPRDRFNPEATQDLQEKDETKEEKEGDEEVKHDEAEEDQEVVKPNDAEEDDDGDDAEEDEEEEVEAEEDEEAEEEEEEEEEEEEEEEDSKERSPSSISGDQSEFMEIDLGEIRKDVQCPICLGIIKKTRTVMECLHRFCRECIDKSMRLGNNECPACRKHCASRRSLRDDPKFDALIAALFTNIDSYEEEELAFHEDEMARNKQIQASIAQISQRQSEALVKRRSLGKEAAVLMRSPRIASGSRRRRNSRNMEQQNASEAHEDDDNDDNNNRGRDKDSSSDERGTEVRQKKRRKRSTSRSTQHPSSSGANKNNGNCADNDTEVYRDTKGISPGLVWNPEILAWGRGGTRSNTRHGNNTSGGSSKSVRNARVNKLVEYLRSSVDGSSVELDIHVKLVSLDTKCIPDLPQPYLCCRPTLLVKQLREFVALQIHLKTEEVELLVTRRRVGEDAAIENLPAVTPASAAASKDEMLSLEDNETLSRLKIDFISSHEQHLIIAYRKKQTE"}, "[2]": {"target": "T2, VIVIPAROUS1/ABI3-LIKE (VAL1), yeast two-hybrid fusion (Arabidopsis thaliana) (UniProt Q8W4L5)", "T2 sequence": "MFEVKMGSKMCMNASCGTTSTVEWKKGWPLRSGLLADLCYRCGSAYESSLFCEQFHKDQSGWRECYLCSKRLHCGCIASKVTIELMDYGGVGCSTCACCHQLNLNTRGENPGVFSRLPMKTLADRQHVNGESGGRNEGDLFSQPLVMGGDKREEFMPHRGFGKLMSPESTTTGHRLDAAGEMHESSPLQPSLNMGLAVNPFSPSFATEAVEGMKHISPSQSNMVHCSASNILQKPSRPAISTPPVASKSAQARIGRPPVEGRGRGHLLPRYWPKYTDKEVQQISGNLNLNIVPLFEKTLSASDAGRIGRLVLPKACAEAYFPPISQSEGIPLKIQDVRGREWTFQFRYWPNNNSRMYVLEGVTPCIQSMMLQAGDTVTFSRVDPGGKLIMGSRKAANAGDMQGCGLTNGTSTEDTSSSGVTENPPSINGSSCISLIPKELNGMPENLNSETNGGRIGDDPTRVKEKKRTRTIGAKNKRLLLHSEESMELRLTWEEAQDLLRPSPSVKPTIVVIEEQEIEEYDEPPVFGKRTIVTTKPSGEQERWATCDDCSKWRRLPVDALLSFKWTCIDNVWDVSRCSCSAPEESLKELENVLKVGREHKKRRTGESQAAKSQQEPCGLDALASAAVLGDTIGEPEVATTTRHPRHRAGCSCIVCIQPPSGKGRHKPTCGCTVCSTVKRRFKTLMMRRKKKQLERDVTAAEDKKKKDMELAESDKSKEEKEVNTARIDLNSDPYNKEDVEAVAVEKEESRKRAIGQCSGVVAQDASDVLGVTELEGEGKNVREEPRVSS"}, "[3]": {"target": "T3, RING1B, yeast two-hybrid fusion (Arabidopsis thaliana) (UniProt Q0WX00)", "T3 sequence": "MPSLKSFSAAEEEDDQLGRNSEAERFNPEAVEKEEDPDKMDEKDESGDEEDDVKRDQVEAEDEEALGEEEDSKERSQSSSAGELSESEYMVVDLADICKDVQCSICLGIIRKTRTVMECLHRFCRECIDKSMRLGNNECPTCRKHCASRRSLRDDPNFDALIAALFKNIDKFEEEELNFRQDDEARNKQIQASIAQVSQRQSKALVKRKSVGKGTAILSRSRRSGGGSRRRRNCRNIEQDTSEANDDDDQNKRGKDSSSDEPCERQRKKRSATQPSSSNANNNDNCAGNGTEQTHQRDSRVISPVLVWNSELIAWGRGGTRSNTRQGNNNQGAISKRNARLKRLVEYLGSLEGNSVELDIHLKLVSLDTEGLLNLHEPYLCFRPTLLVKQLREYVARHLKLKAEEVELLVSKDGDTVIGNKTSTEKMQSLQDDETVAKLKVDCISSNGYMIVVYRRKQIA"}},
  "note": "Results are given in words; binding and its absence hold for the method and conditions named. Some results given as binding are weak or reduced against the parent protein; the word gives no strength. Tags and fused reporters may be left off the sequences shown.",
  "data": [
    {"binder": "B1", "values": [
      {"measurement": "binding", "setting": "[1]", "value": "binds"},
      {"measurement": "binding", "setting": "[2]", "value": "no binding"},
      {"measurement": "binding", "setting": "[3]", "value": "binds"}
    ]}
  ]
}
